In ChEMBL document CHEMBL1129436, “Novel peptidyl alpha-keto amide inhibitors of calpains and other cysteine proteases” (J Med Chem, 1996) one finds IC data, which are given here for one compound.

For this test, the species on record is Rattus norvegicus.
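Also: measured as membrane permeability of platelets.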

On to `CCC(NC(=O)C(CC(C)C)NC(=O)C(c1ccccc1)c1ccccc1)C(=O)C(=O)NCCCN1CCOCC1` (stereo unspecified), for which the IC came to 82 µM.
